According to the supplement of paper PMC10849652:
This is one part of the list.

Amino acid sequences for entries named in this document (tags omitted). A change or cut given only in a name is not applied to a line headed by its entry.
UniProt Q8TAV0: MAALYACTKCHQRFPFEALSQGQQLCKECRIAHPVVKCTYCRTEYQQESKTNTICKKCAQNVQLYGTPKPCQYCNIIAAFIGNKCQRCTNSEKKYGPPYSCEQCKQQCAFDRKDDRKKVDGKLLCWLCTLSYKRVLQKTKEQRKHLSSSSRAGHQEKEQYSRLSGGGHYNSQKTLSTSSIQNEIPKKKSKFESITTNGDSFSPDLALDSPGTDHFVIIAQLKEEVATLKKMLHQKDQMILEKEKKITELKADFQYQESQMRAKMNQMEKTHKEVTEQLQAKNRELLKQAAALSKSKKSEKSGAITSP
UniProt A6ND36: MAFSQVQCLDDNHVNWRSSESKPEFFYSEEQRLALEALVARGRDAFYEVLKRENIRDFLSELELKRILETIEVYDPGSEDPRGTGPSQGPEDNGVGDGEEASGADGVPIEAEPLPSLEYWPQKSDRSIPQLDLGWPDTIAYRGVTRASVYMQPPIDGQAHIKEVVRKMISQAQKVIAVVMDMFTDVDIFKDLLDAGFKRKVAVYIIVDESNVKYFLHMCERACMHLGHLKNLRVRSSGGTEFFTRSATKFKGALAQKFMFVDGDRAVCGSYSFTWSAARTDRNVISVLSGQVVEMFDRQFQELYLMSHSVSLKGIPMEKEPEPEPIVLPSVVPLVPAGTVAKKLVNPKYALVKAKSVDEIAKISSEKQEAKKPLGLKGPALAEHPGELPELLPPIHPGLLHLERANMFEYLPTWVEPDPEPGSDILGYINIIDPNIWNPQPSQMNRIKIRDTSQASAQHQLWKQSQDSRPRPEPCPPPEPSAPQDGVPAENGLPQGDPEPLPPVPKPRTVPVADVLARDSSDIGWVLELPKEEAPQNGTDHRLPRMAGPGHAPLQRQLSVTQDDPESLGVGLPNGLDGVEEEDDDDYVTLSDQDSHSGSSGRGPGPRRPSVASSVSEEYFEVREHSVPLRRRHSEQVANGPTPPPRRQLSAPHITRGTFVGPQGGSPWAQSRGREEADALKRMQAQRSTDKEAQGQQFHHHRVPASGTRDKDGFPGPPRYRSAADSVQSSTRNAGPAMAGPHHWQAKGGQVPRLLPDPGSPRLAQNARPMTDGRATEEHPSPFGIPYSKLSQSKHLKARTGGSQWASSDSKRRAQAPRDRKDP
UniProt O95466, whole entry, looked up: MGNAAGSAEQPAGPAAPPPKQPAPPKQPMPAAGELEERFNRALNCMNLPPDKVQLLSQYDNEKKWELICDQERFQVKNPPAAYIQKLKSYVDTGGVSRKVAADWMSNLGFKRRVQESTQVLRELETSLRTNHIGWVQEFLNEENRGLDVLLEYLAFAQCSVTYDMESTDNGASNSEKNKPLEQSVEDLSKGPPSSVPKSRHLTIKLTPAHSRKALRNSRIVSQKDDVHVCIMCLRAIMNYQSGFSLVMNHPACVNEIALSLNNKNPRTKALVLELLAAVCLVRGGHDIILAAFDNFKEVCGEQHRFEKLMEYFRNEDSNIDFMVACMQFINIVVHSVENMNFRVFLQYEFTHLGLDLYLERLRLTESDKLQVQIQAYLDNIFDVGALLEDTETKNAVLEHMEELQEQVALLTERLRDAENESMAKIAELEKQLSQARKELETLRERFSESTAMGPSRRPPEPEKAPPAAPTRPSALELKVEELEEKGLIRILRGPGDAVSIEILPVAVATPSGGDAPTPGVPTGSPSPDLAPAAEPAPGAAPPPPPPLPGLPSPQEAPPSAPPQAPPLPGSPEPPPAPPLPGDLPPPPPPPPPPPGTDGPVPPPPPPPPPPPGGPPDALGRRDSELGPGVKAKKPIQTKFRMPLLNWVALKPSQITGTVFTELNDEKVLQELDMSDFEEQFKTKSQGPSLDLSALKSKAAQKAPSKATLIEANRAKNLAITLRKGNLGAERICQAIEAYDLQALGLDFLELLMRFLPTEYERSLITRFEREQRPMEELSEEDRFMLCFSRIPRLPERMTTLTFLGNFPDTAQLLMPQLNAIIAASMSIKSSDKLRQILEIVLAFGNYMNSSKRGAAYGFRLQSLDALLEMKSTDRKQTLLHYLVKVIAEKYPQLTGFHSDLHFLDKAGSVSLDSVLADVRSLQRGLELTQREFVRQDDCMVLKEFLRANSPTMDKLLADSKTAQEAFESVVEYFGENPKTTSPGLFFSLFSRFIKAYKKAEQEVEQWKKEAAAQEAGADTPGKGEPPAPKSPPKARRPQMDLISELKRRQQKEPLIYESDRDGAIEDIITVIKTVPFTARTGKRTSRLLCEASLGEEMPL
UniProt Q8NFZ0: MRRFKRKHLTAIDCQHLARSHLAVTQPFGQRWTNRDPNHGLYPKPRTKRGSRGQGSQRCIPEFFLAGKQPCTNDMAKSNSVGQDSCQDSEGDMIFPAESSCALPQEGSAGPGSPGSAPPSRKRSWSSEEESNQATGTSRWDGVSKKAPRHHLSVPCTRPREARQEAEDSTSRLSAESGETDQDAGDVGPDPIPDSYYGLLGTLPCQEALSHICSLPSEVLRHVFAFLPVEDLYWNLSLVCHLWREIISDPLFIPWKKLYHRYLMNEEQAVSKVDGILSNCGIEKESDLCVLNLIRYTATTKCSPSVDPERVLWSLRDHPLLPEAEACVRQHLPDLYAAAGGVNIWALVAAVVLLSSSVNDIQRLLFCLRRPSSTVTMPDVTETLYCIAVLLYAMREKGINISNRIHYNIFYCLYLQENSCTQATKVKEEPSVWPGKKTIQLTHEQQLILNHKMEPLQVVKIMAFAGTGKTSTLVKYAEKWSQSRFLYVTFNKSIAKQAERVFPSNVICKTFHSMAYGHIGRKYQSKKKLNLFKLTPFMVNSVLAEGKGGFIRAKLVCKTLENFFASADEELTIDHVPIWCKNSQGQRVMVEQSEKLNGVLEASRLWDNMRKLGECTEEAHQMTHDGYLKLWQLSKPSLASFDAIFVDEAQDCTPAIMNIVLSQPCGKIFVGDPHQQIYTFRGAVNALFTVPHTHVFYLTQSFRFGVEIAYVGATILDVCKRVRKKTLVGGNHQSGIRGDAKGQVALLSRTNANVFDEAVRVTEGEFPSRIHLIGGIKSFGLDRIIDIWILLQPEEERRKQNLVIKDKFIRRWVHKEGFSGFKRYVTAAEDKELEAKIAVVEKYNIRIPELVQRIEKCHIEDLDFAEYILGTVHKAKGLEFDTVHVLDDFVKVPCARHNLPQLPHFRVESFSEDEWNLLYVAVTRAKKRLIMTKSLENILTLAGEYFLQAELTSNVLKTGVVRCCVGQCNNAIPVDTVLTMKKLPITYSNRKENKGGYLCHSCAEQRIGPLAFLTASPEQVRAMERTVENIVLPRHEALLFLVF
UniProt Q86UY5: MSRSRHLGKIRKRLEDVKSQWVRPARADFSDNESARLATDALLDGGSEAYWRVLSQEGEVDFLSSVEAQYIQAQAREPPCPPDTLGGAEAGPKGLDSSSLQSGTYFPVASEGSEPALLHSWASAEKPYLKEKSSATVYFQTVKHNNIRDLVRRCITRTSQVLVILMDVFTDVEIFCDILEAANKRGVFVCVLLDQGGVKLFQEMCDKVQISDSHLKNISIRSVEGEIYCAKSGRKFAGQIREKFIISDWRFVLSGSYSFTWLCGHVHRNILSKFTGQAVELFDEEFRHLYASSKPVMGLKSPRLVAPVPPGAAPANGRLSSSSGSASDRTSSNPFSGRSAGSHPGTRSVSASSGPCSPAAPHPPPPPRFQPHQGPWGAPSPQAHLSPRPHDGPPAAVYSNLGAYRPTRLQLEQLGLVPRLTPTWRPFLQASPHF
UniProt Q9NYF3: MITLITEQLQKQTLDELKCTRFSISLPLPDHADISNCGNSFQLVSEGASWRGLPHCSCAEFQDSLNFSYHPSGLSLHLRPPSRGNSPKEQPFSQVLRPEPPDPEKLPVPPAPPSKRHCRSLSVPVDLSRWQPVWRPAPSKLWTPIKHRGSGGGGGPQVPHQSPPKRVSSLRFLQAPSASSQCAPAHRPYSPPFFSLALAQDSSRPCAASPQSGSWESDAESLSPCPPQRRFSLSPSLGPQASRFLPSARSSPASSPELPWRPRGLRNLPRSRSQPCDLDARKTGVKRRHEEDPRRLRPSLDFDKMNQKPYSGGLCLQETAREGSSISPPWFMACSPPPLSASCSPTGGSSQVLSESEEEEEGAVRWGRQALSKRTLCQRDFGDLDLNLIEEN
UniProt Q14153: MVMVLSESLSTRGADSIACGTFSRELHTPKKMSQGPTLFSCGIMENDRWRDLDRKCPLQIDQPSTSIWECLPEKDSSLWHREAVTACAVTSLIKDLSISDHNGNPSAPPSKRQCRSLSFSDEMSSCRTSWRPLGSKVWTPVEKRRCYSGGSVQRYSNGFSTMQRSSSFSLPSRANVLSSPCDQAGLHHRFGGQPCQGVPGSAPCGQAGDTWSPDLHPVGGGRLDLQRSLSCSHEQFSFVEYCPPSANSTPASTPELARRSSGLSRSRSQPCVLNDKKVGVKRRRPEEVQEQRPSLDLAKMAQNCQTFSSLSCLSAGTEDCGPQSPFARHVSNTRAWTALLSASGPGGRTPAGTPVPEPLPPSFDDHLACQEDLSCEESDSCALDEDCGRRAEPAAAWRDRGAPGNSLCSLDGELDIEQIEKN
UniProt P02675: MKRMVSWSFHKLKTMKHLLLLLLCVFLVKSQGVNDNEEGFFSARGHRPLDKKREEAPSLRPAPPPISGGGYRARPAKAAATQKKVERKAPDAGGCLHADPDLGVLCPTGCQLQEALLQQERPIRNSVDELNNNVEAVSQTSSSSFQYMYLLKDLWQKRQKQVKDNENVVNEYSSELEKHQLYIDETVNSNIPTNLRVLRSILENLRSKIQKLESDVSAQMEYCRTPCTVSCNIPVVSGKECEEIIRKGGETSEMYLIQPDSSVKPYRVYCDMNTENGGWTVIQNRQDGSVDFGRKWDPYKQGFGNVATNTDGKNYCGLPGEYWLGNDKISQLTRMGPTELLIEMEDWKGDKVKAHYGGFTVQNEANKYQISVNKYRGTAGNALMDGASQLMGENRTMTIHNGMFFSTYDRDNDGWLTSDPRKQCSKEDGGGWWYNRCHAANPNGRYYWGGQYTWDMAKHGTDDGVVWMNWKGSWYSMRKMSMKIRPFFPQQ
UniProt Q8WU58: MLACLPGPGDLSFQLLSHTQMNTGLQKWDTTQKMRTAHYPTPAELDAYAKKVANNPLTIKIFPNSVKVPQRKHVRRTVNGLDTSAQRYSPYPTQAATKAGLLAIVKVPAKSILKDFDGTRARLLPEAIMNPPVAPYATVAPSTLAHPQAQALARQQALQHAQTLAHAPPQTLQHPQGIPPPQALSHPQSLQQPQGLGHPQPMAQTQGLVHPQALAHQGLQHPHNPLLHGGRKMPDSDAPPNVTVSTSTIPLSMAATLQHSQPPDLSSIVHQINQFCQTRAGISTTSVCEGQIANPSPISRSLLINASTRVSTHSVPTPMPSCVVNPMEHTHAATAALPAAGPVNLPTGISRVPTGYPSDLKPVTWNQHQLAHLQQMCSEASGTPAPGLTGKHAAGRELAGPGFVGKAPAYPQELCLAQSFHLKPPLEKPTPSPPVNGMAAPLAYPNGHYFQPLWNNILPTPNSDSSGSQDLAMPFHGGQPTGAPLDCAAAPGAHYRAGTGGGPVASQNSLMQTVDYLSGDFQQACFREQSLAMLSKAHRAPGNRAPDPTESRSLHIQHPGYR
UniProt P16591: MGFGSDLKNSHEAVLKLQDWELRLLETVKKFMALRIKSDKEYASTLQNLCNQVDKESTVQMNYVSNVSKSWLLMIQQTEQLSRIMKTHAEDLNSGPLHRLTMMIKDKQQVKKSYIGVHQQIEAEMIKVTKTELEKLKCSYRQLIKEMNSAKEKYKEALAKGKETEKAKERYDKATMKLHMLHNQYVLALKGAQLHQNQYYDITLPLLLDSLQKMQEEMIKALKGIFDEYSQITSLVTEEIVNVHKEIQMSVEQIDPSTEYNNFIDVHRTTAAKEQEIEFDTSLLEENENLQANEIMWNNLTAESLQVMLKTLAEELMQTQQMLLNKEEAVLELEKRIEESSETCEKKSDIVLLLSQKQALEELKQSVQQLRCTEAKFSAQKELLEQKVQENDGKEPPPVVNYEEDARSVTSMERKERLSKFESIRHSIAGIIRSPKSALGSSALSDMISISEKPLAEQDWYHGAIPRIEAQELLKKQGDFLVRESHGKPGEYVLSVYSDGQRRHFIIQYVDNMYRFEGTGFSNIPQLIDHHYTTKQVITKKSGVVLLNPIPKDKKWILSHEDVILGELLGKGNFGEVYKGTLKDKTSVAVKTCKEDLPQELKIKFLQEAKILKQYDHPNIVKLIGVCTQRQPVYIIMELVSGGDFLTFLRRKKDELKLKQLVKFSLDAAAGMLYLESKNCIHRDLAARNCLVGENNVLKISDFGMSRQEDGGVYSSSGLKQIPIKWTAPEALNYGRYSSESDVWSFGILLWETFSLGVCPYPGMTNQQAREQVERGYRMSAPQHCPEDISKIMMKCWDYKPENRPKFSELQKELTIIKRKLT
UniProt Q96GI7: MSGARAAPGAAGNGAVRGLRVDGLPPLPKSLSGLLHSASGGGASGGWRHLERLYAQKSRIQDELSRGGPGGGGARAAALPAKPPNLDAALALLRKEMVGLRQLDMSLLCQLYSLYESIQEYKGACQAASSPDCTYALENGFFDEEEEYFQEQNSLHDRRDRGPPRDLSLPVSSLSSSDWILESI

Assays:
Test in all cases: log2 fold change, soluble protein after heating vs DMSO (PISA); higher = thermal stabilisation; K562 cells, 10 uM, 30 min; active = over 0.2 and 3.5 SD of the protein, either way, in both replicates (recomputed)
alvocidib = compound: CN1CC[C@H](c2c(O)cc(O)c3c(=O)cc(-c4ccccc4Cl)oc23)[C@H](O)C1 [alvocidib]
Summary of the method: (§1)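 K562 cells at 2×10^6 cells/mL were treated with 10 μM compound for 30 min. Aliquots were heated for 3 min across 48°C-58°C, pooled, and extracted in PBS with 0.5% NP-40 at 4°C; soluble protein was the supernatant after 21,000xg for 90 min. Soluble protein was quantified by TMTpro 16plex LC-MS/MS with channel sums equalised, and reported as log2 fold change in thermal stability against DMSO controls, with values from duplicates.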

defactinib = compound: CNC(=O)c1ccc(Nc2ncc(C(F)(F)F)c(NCc3nccnc3N(C)S(C)(=O)=O)n2)cc1 [defactinib]
Summary of the method: as §1

[1] = compound: COC(=O)[C@H](CCSC)NC(=O)C1=C(C=C(C=C1)NC[C@H](CS)N)C2=CC=CC=C2
Summary of the method: as §1

[2] = compound: CNC(=O)C1=CC=CC=C1NC2=NC(=NC=C2Cl)NC3=C(C=C(C=C3)N4CCOCC4)OC
Summary of the method: as §1

sotrastaurin = compound: CN1CCN(c2nc(C3=C(c4c[nH]c5ccccc45)C(=O)NC3=O)c3ccccc3n2)CC1 [sotrastaurin]
Summary of the method: as §1

Tubastatin A = compound: CN1CCc2c(c3ccccc3n2Cc2ccc(C(=O)NO)cc2)C1 [Tubastatin A]
Summary of the method: as §1

saracatinib = compound: CN1CCN(CCOc2cc(OC3CCOCC3)c3c(Nc4c(Cl)ccc5c4OCO5)ncnc3c2)CC1 [saracatinib]
Summary of the method: as §1

rucaparib = compound: CNCc1ccc(-c2[nH]c3cc(F)cc4c3c2CCNC4=O)cc1 [rucaparib]
Summary of the method: as §1

[3] = compound: CNc1nc(-c2ccc3c(N)n[nH]c3c2)cc(N2C[C@@H](C(=O)NC3CCCCC3)CC[C@H]2C)n1
Summary of the method: as §1

encorafenib = compound: COC(=O)N[C@@H](C)CNc1nccc(-c2cn(C(C)C)nc2-c2cc(Cl)cc(NS(C)(=O)=O)c2F)n1 [encorafenib]
Summary of the method: as §1

Measured: log2 fold change

FANCL isoform 2 (UniProt Q9NW38)
inactive: alvocidib -0.144 | defactinib -0.258 | [1] -0.03

FGL2 (UniProt Q14314)
inactive: [2] 0.087

FLII isoform 2 (UniProt Q13045)
inactive: sotrastaurin -0.064 | alvocidib -0.209 | Tubastatin A 0.281

FAM98C (UniProt Q17RN3)
inactive: alvocidib -0.103

FAM219B (UniProt Q5XKK7)
inactive: sotrastaurin -0.087

FAM86B2 (UniProt P0C5J1)
inactive: sotrastaurin 0.041

Retrieved one by one from above, 2 records:
FAM86B2 (UniProt P0C5J1)
inactive: sotrastaurin 0.041

FAM219B (UniProt Q5XKK7)
inactive: sotrastaurin -0.087

Next part

FAT2 (UniProt Q9NYQ8)
inactive: saracatinib -0.243 | Tubastatin A 0.144 | [2] -0.206 | defactinib 0.011 | rucaparib -0.007 | [3] 0.021 | encorafenib 0.094 | [1] 0.001

FITM2 (UniProt Q8N6M3)
inactive: [2] 0.009 | rucaparib 0.029 | encorafenib 0.009

FAM76A isoform 3 (UniProt Q8TAV0)
inactive: sotrastaurin 0.053 | Tubastatin A -0.075 | [2] 0.017 | defactinib -0.02 | rucaparib -0.021 | encorafenib -0.019 | [1] -0.093

FARP2 (UniProt O94887)
inactive: saracatinib -0.019 | alvocidib 0.196 | Tubastatin A -0.004 | defactinib 0.165 | [3] 0.015 | [1] -0.023

FBRSL1 (UniProt Q9HCM7)
inactive: Tubastatin A 0.166 | [2] -0.146

FAM83G (UniProt A6ND36)
inactive: saracatinib -0.12 | Tubastatin A 0.064 | defactinib -0.015 | [3] -0.129 | [1] 0.033

FMR1 (UniProt Q06787)
inactive: sotrastaurin -0.105 | [2] 0.006 | rucaparib 0.19 | encorafenib 0.04

FMNL1 isoform 3 (UniProt O95466)
inactive: sotrastaurin -0.443

FLT1 (UniProt P17948)
inactive: saracatinib 0.071 | defactinib 0.033 | rucaparib -0.053 | [3] -0.127 | encorafenib -0.001 | [1] 0.081

FBH1 isoform 2 (UniProt Q8NFZ0)
inactive: sotrastaurin 0.085 | Tubastatin A 0.069 | [2] -0.07 | defactinib -0.088 | rucaparib -0.231 | encorafenib -0.015 | [1] -0.002

FBF1 isoform 6 (UniProt Q8TES7)
inactive: saracatinib 0.114 | [3] 0.135

FAM83A (UniProt Q86UY5)
inactive: sotrastaurin -0.128 | Tubastatin A 0.155 | [2] -0.117 | defactinib 0.069 | [1] -0.128

FAM53C (UniProt Q9NYF3)
inactive: sotrastaurin 0.003 | alvocidib -0.206 | Tubastatin A 0.245 | rucaparib 0.008 | encorafenib -0.033

FAM53B (UniProt Q14153)
inactive: saracatinib 0.032 | [2] -0.403 | defactinib -0.087 | rucaparib -0.411 | [3] -0.024 | encorafenib -0.103 | [1] 0.125

FAM234B (UniProt A2RU67)
inactive: sotrastaurin 0.02 | alvocidib -0.215 | Tubastatin A 0.316 | [2] 0.08 | defactinib -0.106 | [1] -0.038

FANCA (UniProt O15360)
inactive: rucaparib 0.062 | encorafenib -0.04

FGB (UniProt P02675)
inactive: sotrastaurin -0.027 | alvocidib -0.013 | Tubastatin A -0.039 | [2] 0.081 | defactinib 0.023 | rucaparib 0.019 | encorafenib -0.293 | [1] -0.051

FBRS (UniProt J3KNZ9)
inactive: sotrastaurin -0.118 | alvocidib 0.226 | defactinib -0.305 | [1] 0.035

FAT4 (UniProt Q6V0I7)
inactive: sotrastaurin 0.128 | Tubastatin A -0.037 | defactinib 0.06 | rucaparib -0.154 | encorafenib -0.04 | [1] 0.123

FAM222B (UniProt Q8WU58)
inactive: saracatinib -0.01 | Tubastatin A 0.161 | [2] 0.013 | rucaparib -0.017 | [3] 0.031 | encorafenib -0.08

FNDC3A (UniProt Q9Y2H6)
inactive: Tubastatin A -0.027 | rucaparib 0.321 | encorafenib 0.059

FNBP1 (UniProt Q96RU3)
inactive: saracatinib 0.027 | Tubastatin A 0.073 | [3] -0.007

FER (UniProt P16591)
inactive: sotrastaurin 0.14 | [2] -0.134 | defactinib -0.061 | rucaparib -0.182 | encorafenib 0.096 | [1] 0.064

FBXO44 (UniProt Q9H4M3)
inactive: sotrastaurin -0.086 | alvocidib -0.034

FAM89A (UniProt Q96GI7)
inactive: sotrastaurin 0.042 | [2] 0.003 | rucaparib -0.003 | encorafenib 0.141
